Experimental data taken from patent US6342360B1 (priority 1988, dated 2002).
At least one structure is not confirmed: it was looked up by name or label, or the drawing left a doubt.

Protein sequences, listed by entry. Tags and fused reporters are not part of them. Residues count along the entry.
UniProt P61169, 1-415 isoform P61169-2: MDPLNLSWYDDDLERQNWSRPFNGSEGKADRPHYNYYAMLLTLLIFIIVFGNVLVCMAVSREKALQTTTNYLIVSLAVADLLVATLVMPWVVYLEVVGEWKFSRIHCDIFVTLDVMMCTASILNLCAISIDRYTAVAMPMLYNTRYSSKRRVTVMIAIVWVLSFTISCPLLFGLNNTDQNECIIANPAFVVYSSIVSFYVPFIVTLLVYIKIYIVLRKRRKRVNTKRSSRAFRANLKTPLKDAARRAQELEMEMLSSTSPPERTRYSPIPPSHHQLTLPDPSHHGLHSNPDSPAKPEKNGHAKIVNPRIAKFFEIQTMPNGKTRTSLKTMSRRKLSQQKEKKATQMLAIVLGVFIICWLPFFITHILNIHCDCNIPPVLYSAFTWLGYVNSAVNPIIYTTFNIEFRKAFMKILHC

Target: dopamine-D2 receptor (Rattus norvegicus, UniProt P61169)
Experiment: cAMP accumulation in GH4ZR7 cells
Settings: data not shown

C[C@H](N)C(=O)NCC(=O)N[C@H]1CSSC[C@@H](C(=O)O)NC(=O)[C@H](CO)NC(=O)[C@H]([C@@H](C)O)NC(=O)[C@H](Cc2ccccc2)NC(=O)[C@H]([C@@H](C)O)NC(=O)[C@H](CCCCN)NC(=O)[C@H](Cc2c[nH]c3ccccc23)NC(=O)[C@H](Cc2ccccc2)NC(=O)[C@H](Cc2ccccc2)NC(=O)[C@H](CC(N)=O)NC(=O)[C@H](CCCCN)NC1=O [somatostatin]
inhibition of VIP-enhanced cAMP accumulation relative to dopamine: half as effective as dopamine
